Reference: US20050059628A1
Results are given in words; binding and its absence hold for the method and conditions named. In cells and extracts the contact can be indirect. Some entries that bind do so weakly or less than the wild type. Values belong to the substance of their own block, whether it stands above or below them.

Sequences of proteins named here, by UniProt entry; tags and fusion partners are left off. A change or cut given only in a name is not applied to a line headed by its entry. Residues count along the entry.
UniProt P35222, residues 2-781: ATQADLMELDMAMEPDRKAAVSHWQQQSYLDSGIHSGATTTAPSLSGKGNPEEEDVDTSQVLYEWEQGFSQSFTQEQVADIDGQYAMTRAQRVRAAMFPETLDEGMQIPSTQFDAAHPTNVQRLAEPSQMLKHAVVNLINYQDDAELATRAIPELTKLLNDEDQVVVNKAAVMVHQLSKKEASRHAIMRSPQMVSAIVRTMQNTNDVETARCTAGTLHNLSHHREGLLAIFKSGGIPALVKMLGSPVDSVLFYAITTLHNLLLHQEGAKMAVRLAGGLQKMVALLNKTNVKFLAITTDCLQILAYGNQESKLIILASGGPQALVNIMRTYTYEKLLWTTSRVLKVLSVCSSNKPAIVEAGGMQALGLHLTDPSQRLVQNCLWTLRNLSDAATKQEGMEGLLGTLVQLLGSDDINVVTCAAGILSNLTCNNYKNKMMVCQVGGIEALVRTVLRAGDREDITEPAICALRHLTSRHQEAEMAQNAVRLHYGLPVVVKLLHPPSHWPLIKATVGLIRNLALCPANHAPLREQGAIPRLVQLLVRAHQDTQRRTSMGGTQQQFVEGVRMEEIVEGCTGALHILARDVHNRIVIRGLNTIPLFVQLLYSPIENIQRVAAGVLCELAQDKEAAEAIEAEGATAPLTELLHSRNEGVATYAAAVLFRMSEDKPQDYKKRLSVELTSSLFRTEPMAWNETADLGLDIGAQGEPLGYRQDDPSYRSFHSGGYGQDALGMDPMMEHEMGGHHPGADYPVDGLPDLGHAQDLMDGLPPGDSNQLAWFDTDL
CBP (1-351) (P45481, residues 1-351): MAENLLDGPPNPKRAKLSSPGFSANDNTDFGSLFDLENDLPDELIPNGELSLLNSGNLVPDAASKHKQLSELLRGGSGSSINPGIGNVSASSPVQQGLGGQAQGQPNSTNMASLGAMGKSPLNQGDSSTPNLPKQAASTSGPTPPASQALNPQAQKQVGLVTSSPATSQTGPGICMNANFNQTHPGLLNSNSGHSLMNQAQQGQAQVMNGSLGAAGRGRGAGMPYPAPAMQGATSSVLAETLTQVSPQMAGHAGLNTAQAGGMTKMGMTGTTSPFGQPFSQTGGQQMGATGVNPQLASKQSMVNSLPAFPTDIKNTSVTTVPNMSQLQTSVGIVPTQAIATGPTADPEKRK
CBP (1-211) (P45481, residues 1-211): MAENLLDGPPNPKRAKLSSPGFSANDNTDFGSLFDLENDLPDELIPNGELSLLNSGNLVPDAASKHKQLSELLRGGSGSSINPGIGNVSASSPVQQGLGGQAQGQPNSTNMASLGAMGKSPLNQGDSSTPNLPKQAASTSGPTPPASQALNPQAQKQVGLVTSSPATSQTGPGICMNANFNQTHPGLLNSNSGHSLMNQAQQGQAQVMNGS
UniProt Q09472: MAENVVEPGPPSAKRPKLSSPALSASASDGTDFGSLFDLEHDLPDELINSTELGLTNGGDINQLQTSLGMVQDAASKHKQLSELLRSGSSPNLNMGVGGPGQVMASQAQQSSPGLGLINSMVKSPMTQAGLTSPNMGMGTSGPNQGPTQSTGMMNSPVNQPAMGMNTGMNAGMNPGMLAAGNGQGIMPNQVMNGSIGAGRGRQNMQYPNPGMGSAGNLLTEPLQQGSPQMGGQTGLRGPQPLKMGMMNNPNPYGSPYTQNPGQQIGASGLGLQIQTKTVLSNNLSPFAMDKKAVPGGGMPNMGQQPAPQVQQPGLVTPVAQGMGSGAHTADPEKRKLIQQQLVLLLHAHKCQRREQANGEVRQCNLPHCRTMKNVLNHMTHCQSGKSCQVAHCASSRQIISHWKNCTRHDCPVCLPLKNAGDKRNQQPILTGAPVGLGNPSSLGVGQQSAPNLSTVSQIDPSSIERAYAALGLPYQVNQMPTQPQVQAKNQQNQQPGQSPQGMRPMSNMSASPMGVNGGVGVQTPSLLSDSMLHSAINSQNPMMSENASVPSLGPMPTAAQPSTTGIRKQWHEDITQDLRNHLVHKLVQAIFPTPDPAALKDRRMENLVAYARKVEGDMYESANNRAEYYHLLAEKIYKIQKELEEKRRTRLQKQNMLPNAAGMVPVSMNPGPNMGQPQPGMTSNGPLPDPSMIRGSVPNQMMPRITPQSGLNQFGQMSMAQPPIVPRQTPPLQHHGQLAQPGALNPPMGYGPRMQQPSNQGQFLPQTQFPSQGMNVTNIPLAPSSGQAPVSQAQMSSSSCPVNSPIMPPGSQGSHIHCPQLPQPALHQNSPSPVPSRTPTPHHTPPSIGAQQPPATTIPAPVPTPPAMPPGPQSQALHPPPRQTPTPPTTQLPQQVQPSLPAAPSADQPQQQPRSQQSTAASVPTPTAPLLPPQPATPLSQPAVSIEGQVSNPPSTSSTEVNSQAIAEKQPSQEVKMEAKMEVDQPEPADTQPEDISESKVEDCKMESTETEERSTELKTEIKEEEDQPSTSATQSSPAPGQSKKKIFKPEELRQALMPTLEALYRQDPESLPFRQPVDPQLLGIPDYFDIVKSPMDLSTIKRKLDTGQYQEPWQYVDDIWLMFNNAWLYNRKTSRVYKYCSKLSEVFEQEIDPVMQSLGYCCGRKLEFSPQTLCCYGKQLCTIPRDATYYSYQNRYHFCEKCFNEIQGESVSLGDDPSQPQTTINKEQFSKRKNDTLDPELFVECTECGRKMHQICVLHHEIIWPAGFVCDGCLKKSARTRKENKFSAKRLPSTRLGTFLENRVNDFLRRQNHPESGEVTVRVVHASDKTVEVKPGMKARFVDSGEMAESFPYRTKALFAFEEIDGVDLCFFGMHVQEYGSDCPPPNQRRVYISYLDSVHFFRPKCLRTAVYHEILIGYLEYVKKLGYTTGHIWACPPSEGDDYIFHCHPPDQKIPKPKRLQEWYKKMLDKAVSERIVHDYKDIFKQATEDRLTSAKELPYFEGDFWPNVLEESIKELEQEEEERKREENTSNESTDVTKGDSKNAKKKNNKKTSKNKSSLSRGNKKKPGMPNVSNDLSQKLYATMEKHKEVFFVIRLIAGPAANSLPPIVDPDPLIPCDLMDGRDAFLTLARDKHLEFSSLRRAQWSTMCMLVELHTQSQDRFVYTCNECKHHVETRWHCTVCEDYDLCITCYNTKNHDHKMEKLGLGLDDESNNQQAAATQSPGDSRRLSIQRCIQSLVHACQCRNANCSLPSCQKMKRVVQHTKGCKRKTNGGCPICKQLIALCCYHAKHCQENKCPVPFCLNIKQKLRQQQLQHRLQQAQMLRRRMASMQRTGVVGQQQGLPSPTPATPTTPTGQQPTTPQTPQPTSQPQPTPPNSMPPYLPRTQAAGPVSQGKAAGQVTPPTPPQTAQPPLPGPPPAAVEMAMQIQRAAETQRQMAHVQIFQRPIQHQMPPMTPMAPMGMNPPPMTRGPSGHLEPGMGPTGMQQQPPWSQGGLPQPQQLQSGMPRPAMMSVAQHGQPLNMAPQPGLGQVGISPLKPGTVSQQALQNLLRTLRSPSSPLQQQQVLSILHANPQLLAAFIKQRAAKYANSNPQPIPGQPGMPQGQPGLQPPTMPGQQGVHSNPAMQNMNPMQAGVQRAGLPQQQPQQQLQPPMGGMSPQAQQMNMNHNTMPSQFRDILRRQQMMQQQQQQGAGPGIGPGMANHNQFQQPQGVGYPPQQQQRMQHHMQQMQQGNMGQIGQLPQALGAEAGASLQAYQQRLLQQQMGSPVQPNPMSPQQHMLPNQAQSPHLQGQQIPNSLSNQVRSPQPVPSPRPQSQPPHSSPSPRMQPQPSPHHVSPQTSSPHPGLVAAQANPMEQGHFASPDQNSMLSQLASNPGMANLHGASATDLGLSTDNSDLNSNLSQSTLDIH
UniProt Q92793, residues 2-2442: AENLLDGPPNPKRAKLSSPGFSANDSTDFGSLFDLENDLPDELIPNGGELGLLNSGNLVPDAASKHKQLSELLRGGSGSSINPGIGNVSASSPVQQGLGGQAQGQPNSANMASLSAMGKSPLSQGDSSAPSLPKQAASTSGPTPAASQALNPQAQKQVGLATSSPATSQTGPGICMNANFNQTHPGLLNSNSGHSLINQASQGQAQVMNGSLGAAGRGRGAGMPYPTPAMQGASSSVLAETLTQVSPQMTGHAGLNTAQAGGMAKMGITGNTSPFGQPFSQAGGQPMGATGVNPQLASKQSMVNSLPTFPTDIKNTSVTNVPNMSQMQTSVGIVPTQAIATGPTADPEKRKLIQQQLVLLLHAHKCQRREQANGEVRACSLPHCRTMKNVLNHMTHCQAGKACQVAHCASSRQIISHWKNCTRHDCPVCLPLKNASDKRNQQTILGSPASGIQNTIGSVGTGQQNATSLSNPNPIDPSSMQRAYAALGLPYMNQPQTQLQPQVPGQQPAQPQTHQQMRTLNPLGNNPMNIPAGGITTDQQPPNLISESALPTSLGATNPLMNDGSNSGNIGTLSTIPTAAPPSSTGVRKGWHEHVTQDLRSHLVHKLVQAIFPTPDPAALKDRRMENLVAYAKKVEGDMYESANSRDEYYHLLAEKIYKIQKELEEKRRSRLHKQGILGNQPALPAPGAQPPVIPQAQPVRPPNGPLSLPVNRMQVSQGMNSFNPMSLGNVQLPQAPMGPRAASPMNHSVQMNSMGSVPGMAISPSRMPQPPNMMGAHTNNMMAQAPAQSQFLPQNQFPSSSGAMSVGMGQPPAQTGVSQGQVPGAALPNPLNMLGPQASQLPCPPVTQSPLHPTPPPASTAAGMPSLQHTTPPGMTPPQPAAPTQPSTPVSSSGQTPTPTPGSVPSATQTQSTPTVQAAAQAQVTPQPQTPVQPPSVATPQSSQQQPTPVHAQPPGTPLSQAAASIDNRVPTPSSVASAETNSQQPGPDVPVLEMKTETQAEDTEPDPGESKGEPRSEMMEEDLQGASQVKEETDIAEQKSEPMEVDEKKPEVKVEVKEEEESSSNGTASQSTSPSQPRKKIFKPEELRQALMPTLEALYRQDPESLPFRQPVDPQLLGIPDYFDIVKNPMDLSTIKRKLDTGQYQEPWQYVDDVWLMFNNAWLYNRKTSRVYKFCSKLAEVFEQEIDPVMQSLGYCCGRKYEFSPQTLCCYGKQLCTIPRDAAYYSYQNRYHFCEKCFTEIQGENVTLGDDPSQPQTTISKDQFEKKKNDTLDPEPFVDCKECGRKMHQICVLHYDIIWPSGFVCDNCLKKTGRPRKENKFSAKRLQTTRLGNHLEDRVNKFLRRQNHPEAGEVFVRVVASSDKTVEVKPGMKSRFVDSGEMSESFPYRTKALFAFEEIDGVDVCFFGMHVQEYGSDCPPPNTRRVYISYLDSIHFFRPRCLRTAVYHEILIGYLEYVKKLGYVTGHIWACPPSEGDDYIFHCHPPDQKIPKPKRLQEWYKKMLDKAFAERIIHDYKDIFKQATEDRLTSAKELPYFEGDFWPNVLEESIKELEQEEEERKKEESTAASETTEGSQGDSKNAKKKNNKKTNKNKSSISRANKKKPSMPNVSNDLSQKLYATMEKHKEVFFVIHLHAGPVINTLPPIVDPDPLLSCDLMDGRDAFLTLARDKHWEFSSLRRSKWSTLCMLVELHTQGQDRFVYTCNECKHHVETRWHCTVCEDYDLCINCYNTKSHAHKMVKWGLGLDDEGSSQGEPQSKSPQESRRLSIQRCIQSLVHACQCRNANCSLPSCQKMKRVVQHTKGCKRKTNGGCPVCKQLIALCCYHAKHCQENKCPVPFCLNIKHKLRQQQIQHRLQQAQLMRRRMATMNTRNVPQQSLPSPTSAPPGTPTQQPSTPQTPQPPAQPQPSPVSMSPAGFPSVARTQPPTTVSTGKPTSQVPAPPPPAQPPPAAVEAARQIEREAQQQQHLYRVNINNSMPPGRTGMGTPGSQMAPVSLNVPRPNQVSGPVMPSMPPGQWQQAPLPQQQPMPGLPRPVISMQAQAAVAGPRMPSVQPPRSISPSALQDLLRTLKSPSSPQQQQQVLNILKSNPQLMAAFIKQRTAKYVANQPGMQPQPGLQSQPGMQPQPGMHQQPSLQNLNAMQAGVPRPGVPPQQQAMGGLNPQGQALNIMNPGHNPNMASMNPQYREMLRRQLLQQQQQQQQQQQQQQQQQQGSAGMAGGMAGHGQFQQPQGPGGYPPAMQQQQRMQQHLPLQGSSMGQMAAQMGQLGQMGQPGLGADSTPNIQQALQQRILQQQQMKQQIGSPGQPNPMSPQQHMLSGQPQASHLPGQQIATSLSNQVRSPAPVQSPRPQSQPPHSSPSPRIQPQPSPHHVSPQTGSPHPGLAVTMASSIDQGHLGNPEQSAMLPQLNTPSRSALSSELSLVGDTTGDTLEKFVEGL

Tests used:
[1] = biological target: full-length endogenous β-catenin (SW480 cells) (human (endogenous in human SW480 cells)) (UniProt P35222); assay: co-immunoprecipitation from transfected SW480 lysates with anti-β-catenin antibody, immunoblot with anti-His
[2] = biological target: full-length endogenous β-catenin (SW480 cells) (human (endogenous in human SW480 cells)) (UniProt P35222); assay: co-immunoprecipitation of CBP deletion series with anti-β-catenin antibody, immunoblot with anti-His (FIG. 3C)
[3] = biological target: full-length endogenous β-catenin (SW480 cells) (human (endogenous in human SW480 cells)) (UniProt P35222); assay: co-immunoprecipitation of deletion constructs with anti-β-catenin antibody
[4] = biological target: full-length endogenous β-catenin (SW480 cells) (human (endogenous in human SW480 cells)) (UniProt P35222); assay: co-immunoprecipitation from transfected SW480 cells, challenged with COMPOUND 1
[5] = biological target: full-length endogenous β-catenin (SW480 cells) (human (endogenous in human SW480 cells)) (UniProt P35222); assay: co-immunoprecipitation in SW480 cells
[6] = biological target: full-length endogenous β-catenin (SW480 cells) (human (endogenous in human SW480 cells)) (UniProt P35222); assay: co-immunoprecipitation from SW480 lysates with anti-p300 antibody, immunoblot with anti-β-catenin
[7] = biological target: full-length endogenous β-catenin (SW480 cells) (human (endogenous in human SW480 cells)) (UniProt P35222); assay: co-immunoprecipitation from SW480 lysates with anti-p300 antibody, immunoblot with anti-β-catenin (FIG. 3B)
[8] = biological target: full-length endogenous β-catenin (SW480 cells) (human (endogenous in human SW480 cells)) (UniProt P35222); assay: co-immunoprecipitation from SW480 lysates with anti-CBP antibody, immunoblot with anti-β-catenin
[9] = biological target: full-length endogenous β-catenin (SW480 cells) (human (endogenous in human SW480 cells)) (UniProt P35222); assay: co-immunoprecipitation from SW480 lysates with anti-CBP antibody, immunoblot with anti-β-catenin (FIG. 3B)

binding [1]: binds
binding [2]: binds
binding [3]: binds
binding [4]: binds
Substance: CBP (1-111) (from UniProt P45481 1-108)

binding [5]: binds
binding [6]: binds
binding [7]: binds
Substance: p300, endogenous in SW480 cells (from UniProt Q09472 2-2414)

binding [8]: binds
binding [5]: binds
binding [9]: binds
Substance: CREB-binding protein (CBP), endogenous in SW480 cells (from UniProt Q92793 2-2442)

binding [1]: binds
Substance: CBP (1-211) (from UniProt P45481 1-211)

binding [1]: binds
Substance: p300 (1-351) (from UniProt Q09472 1-351)

binding [1]: binds
binding [3]: binds
binding [4]: binds
Substance: p300 (1-111) (from UniProt Q09472 1-111)

binding [1]: binds
Substance: CBP (1-351) (from UniProt P45481 1-351)

binding [1]: binds
Substance: p300 (1-211) (from UniProt Q09472 1-211)
